Laboratory results taken from patent publication US20090111753A1, “Nogo-A Polypeptide Fragments, Variant Nogo Receptor-1 Polypeptides, and Uses Thereof” (Yale University, priority 2004, published 2009).
Positions count from the first letter of the chain named. In names and notes the source's numbering stands. These are yes or no findings as the source states them, for the method shown. Some results given as binding are weak or reduced against the parent protein; the word gives no strength.

Legend:
Assay in all cases: AP-ligand binding, COS-7
[1] = target: T1, human NgR1 alanine mutant 108, 131 (human) (UniProt Q9BZR6)
T1 sequence: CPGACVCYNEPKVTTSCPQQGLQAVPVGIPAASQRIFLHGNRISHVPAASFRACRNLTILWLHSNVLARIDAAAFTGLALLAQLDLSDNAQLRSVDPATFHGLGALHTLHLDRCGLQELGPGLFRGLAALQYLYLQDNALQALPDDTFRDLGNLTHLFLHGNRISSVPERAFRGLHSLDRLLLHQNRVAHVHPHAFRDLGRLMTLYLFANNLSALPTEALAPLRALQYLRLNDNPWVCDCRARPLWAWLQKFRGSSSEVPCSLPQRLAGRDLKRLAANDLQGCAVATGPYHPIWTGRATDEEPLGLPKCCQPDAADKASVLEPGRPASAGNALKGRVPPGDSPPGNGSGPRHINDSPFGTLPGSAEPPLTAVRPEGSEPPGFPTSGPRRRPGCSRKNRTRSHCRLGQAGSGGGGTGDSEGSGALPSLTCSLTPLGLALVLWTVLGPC

[2] = target: T2, human NgR1 alanine mutant 202, 205, 250 (human) (UniProt Q9BZR6)
T2 sequence: T1 sequence with A82E, A105R, H176A, D179A, R224A

[3] = target: T3, human NgR1 alanine mutant 127 (human) (UniProt Q9BZR6)
T3 sequence: T1 sequence with A82E, H101A, A105R

[4] = target: T4, human NgR1 alanine mutant 176 (human) (UniProt Q9BZR6)
T4 sequence: T1 sequence with A82E, A105R, D150A

[5] = target: T5, human NgR1 alanine mutant 256, 259 (human) (UniProt Q9BZR6)
T5 sequence: T1 sequence with A82E, A105R, R230A, D233A

[6] = target: T6, human NgR1 alanine mutant 220, 223, 224 (human) (UniProt Q9BZR6)
T6 sequence: T1 sequence with A82E, A105R, H194A, R197A, D198A

Measured: binding

B1: AP-fused Amino-Nogo fragment B4C (a.a. 950-1018) (ligand)
chain: LLPPDVSALATQAEIESIVKPKVLVKEAEKKLPSDTEKEDRSPSAIFSAELSKTSVVDLLYWRDIKKTG
notes: also called AmNg B4C; AP-B4C; not shown: alkaline phosphatase (AP), vector pcAP6
binds: all assays above

B2: AP-Nogo-66 (ligand, UniProt Q9NQC3 1055-1120, looked up)
chain: RIYKGVIQAIQKSDEGHPFRAYLESEVAISEELVQKYSNSALGHVNCTIKELRRLFLVDDLVDSLK
notes: domain: Nogo-66; construct described elsewhere (Fournier 2001); also called AP-Ng66; Ng66; not shown: alkaline phosphatase (AP); construct described elsewhere
binds: all assays above
